Test results published in PubChem BioAssay AID540276 (National Center for Advancing Translational Sciences (NCATS), 2011).
In all, about 300,000 compounds went through this assay and about 5,400 (1.8%) were called active. Inconclusive means that the source gave no clear call. Such entries were picked first, then a sample of the others. Calls come from the whole dose curve; tested in HEK293 cells. A potency beside an inconclusive call is a rough fit, not a confirmed value.

Experiment: qHTS for inhibitors of binding or entry into cells for Marburg Virus
Details: Marburg virus pseudotyped entry inhibition, cell reporter; series mostly up to 37.8 µM
Potency is the fitted concentration of half-maximal effect.

Row | Structure (SMILES) | Potency
1 | CC(C)(C)OC(=O)COc1cc(O)c2c(=O)cc(-c3ccccc3)oc2c1 | inconclusive: 0.291 µM [inhibitor, partial curve, poor fit]
2 | C/C(=N/NC(=O)c1ccco1)c1cccc(NC(=O)c2ccc(C)s2)c1 | inactive
3 | Cc1ccc(Cl)cc1N1CCN(C(=O)CN(c2ccccc2)S(=O)(=O)N(C)C)CC1 | inactive
4 | CC(Oc1ccccc1)C(=O)Nc1cccc(F)c1 (stereo not given) | inactive
5 | CCc1nc(Nc2cc(OC)ccc2OC)c2oc3ccccc3c2n1 | inconclusive: 15.8 µM [inhibitor, partial curve, poor fit]
6 | COC(=O)c1ccc(O)cc1 | inactive
7 | COc1ccccc1CCNC1C2CC3CC(C2)CC1C3 (stereo not given) | inconclusive: 22.4 µM [inhibitor, single point]
8 | CC1(C)CC(=O)CC2(C1)NCC(c1ccccc1)c1c2[nH]c2ccccc12 (stereo not given) | inconclusive: 35.5 µM [inhibitor, single point]
9 | CN(C)c1ccc(NC(=O)CC2NCCNC2=O)cc1 (stereo not given) | inactive
10 | Cc1ccc(NNC(=O)c2ccno2)c(C)c1 | active: 8.91 µM
11 | O=C(Nc1ccc(Cl)cc1)Nc1ccc(N2CCCC2)c(S(=O)(=O)Nc2ccccc2Cl)c1 | active: 1.58 µM
12 | COc1ccc(C(CNC(=O)c2cccc(N(C)C)c2)N2CCCC2)cc1 (stereo not given) | inconclusive: 8.2 µM [inhibitor, single point]
13 | COc1ccccc1N1CCN(C(=O)COc2ccc(Cl)cc2Br)CC1 | inconclusive: 8.91 µM [inhibitor, partial curve, poor fit]
14 | Cc1ccc(/C=C2/SC(=S)N(CCC(=O)N3CCN(C)CC3)C2=O)cc1 | inconclusive: 17.8 µM [inhibitor, partial curve, poor fit]
15 | C[C@@H]1C[C@H]2[C@@H](C)C(=O)N3[C@@H](C[C@@H](C)[C@@H]3c3ccccc3)[C@@H](C)C(=O)N2[C@H]1c1ccccc1 | inconclusive: 1.68 µM [inhibitor, partial curve, poor fit]
16 | CC(CNC(=O)c1cc(COc2ccc3ncccc3c2)on1)c1ccccc1 (stereo not given) | inconclusive: 10 µM [inhibitor, single point]
17 | CN(C/C(O)=C(\C#N)c1ccccc1)C1CCCCC1 | inconclusive: 1.12 µM [inhibitor, single point]
18 | CCCc1ccc2oc(C(=O)NCCN3CCCC(O)C3)c(C)c2c1 (stereo not given) | inconclusive: 25.1 µM [inhibitor, single point]
19 | CCOc1ccc(-c2cc3nc(C4CCN(C(=O)OC(C)(C)C)CC4)c(C(=O)Nc4ccc(C)cc4C)cn3n2)cc1 | inconclusive: 3.55 µM [inhibitor, partial curve, poor fit]
20 | Cc1ccc(CNC(=O)Cn2c(=O)n(-c3cccc(Cl)c3)c(=O)c3sc4ccccc4c32)cc1 | inconclusive: 0.891 µM [inhibitor, full curve, poor fit]
21 | O=C(N/N=C(\CC(=O)c1cccs1)C(F)(F)F)c1ccncc1 | inconclusive: 2.51 µM [inhibitor, full curve, poor fit]
22 | CN(C)S(=O)(=O)c1cccc(COc2ncnc3c(Cl)cc(Cl)cc23)c1 | inconclusive: 12.6 µM [inhibitor, partial curve, poor fit]

In another format: results already given.

| Row | Structure (SMILES) | Potency |
| --- | --- | --- |
| 2 | C/C(=N/NC(=O)c1ccco1)c1cccc(NC(=O)c2ccc(C)s2)c1 | inactive |
| 3 | Cc1ccc(Cl)cc1N1CCN(C(=O)CN(c2ccccc2)S(=O)(=O)N(C)C)CC1 | inactive |
| 4 | CC(Oc1ccccc1)C(=O)Nc1cccc(F)c1 (stereo not given) | inactive |

(more compounds)

Row | Structure (SMILES) | Potency
23 | CCOc1ccc(Cl)cc1S(=O)(=O)N1CCC(C(=O)NCc2ccncc2)CC1 | inactive
24 | COc1ccc(CNC(=S)NNC(=O)c2cc3ccccc3o2)cc1 | inconclusive: 0.631 µM [inhibitor, full curve, poor fit]
25 | COc1cc2c(c(OC)c1)C(c1cc(OC)c(OC)c(OC)c1)CC(=O)N2 (stereo not given) | inconclusive: 10 µM [inhibitor, partial curve, poor fit]
26 | Cc1ccc(Cl)cc1-n1c(=O)cc(N2CCN(C(=O)c3ccco3)CC2)[nH]c1=O | inconclusive: 1.41 µM [inhibitor, partial curve, poor fit]
27 | COCCNC(=O)CSc1nc2ccccc2c(=O)n1CCC(=O)N1CCN(c2ccccc2)CC1 | inconclusive: 0.562 µM [activator, full curve, poor fit]
28 | CN(CC(=O)Nc1ccc(Cl)cc1)CC(=O)Nc1cc(Cl)ccc1C#N | inconclusive: 29.1 µM [inhibitor, single point]
29 | O=C1C(Cc2c[nH]c3ccccc23)NC(=S)N1Cc1ccccc1 (stereo not given) | inactive
30 | CC1=C(C(=O)Nc2ccccc2)C(c2ccc(C)o2)n2c(s/c(=C\c3ccco3)c2=O)=N1 (stereo not given) | inconclusive: 11.2 µM [inhibitor, partial curve, poor fit]
31 | COC(=O)C1CCN(C(=O)COC(=O)[C@@H]2CC(O)CN2S(=O)(=O)c2ccc3c(c2)OCCO3)CC1 (stereo not given in full) | inactive
32 | COC(=O)c1cc(NC(=O)c2cccc([N+](=O)[O-])c2C)ccc1Cl | inconclusive: 11.2 µM [inhibitor, partial curve, poor fit]
33 | Cc1cc(C)cc(NC(=O)CCc2c(C)nc3c4cccnc4nn3c2C)c1 | inactive
34 | CCCN(C(=O)c1cc(S(=O)(=O)N2CCCCCC2)ccc1OC)C1CCS(=O)(=O)C1 (stereo not given) | inactive
35 | Cc1cc(Br)ccc1SCC(=O)Nc1cccnc1 | inconclusive: 6.31 µM [inhibitor, single point]
36 | CCOC(=O)c1sc(NC(=S)NC(=O)c2ccccc2)c(C(=O)OCC)c1C | inactive
37 | O=C(c1ccccc1)N1N=C(c2ccccc2)CC1c1ccccc1[N+](=O)[O-] (stereo not given) | inactive
38 | Cc1sc2nc(CSc3ccccc3)nc(N3CCOCC3)c2c1C | inconclusive: 4.47 µM [activator, single point]
39 | CCOc1cc(/C=N/NC(=O)Cn2nc([N+](=O)[O-])cc2C)cc(Br)c1OCc1ccccc1C | inconclusive: 18.3 µM [inhibitor, single point]
40 | Cc1ccccc1OCCC(=O)Nc1ccccc1C(=O)N1CCCCC1 | inactive
41 | O=C(CSc1ccc2nnc(-c3ccccn3)n2n1)Nc1ccccc1C(F)(F)F | inconclusive: 12.6 µM [inhibitor, partial curve]
42 | Cc1c(C(=O)NN)[nH]c2ccc([N+](=O)[O-])cc12 | inconclusive: 7.08 µM [inhibitor, partial curve]
43 | CN(C)S(=O)(=O)c1ccc(C(=O)/C=C/c2cccnc2)cc1 | inactive
44 | CN(CC(=O)Nc1ccccc1-c1ccccc1)Cc1ccccc1Cl | active: 11.2 µM

Row | Structure (SMILES) | Potency
45 | Oc1ccccc1OCc1nc2ccccc2s1 | inconclusive: 7.3 µM [activator, partial curve, poor fit]
46 | CCOc1ccc(N=Cc2c(C)[nH]n(-c3nc4ccccc4[nH]3)c2=O)cc1 | inconclusive: 12.6 µM [inhibitor, partial curve, poor fit]
47 | CCN(CC(=O)Nc1ccc(OC)cc1)C(=O)c1cc(-c2cccs2)nn1-c1ccccc1 | inconclusive: 10 µM [inhibitor, partial curve, poor fit]
48 | COc1cc(OC)cc(N(C(=O)CNC(=O)c2cccs2)C(C(=O)NCC2CCCO2)c2ccccc2)c1 (stereo not given) | inconclusive: 7.08 µM [inhibitor, partial curve, poor fit]
49 | CC(=O)Nc1ccc(NC(=O)c2ccc(C)c(S(=O)(=O)Nc3cccc(C)c3)c2)cc1 | active: 6.31 µM
50 | O=C(Nc1ccc(-c2noc(-c3ccccc3F)n2)cc1)c1cccs1 | inactive
51 | CN(C)S(=O)(=O)c1ccc(N2CCCC2)c(C(=O)Nc2nc(-c3ccc(F)cc3)cs2)c1 | inconclusive: 35.5 µM [inhibitor, partial curve, poor fit]
52 | Cc1nc(NCc2cccnc2)c2c3c(sc2n1)CCCC3 | inconclusive: 35.5 µM [inhibitor, single point]
53 | O=C1CSC(c2cn(-c3ccccc3)nc2-c2cc3ccccc3oc2=O)N1Cc1ccco1 (stereo not given) | inconclusive: 32.6 µM [inhibitor, partial curve, poor fit]
54 | COc1cc(OC)c2nc(C)c3c(c2c1)N(c1ccc(O)cc1)CC3 | inconclusive: 0.631 µM [inhibitor, full curve, poor fit]
55 | Oc1c(CN2CCN(c3ccccn3)CC2)cc(Cl)c2cccnc12 | active: 7.08 µM
56 | CC(C)CCn1c(O)c(N=NC(=O)c2ccco2)c2ccccc21 | inactive
57 | C/C=C/c1ccc(OCCCNC(C)CC)c(OC)c1 (stereo not given) | inconclusive: 13 µM [inhibitor, partial curve, poor fit]
58 | Cc1ccc(OCC(=O)Nc2cccc(S(=O)(=O)N3CCOCC3)c2)c([N+](=O)[O-])n1 | inactive
59 | CN(CC(=O)Nc1cccc(F)c1)C(=O)CCNC(=O)c1ccc(Br)cc1 | inconclusive: 12.6 µM [activator, single point]
60 | COc1cccc(C(=O)N2N=C(c3cccc(OC)c3)CC2(O)C(F)(F)F)c1 (stereo not given) | inconclusive: 8.2 µM [activator, single point]
61 | Cc1noc(C)c1COc1ccccc1C(=O)NCCc1ccc(Cl)cc1 | inconclusive: 31.6 µM [inhibitor, single point]
62 | CC(=O)N1CCCc2cc(S(=O)(=O)N3CCCC(C(=O)N4CCN(c5cc(C)ccc5C)CC4)C3)ccc21 (stereo not given) | inconclusive: 2 µM [inhibitor, partial curve, poor fit]
63 | Cc1cc(-c2csc(N)n2)c(C)n1CCc1ccccc1 | inconclusive: 18.3 µM [inhibitor, single point]
64 | O=C(COC(=O)c1ccncc1)Nc1ccc2c(c1)OCO2 | inconclusive: 6.31 µM [inhibitor, single point]
65 | Cc1ccc(Sc2ccc(N)cn2)cc1 | inconclusive: 11.2 µM [activator, partial curve, poor fit]
